# Data reported in US5134073A, “Microbiologically produced N-acetyl-2,3-didehydroleucine acylase” (Degussa Aktiengesellschaft, priority 1989, dated 1992).
# For at least one compound, name, drawing or mass did not settle the structure.
# Test system: N-acetyldehydroleucine acylase
# Experiment: Enzymatic hydrolysis rate of 4-nitrophenylacetate
# Assay type: biochemical, Zoogloea ramigera
# Conditions: 20 mM 4-nitrophenylacetate, potassium phosphate pH 7, 25° C.; ADL = 100%
smiles,measurement,value
CC(=O)Oc1ccc([N+](=O)[O-])cc1 [4-nitrophenylacetate],rel. activity (%),1.1%
